Assay results published in patent US20040002593A1 (BURNHAM INSTITUTE, published 2004).
Results are given in words; binding and its absence hold for the method and conditions named. In cells and extracts the contact can be indirect. Some entries that bind do so weakly or less than the wild type. For some of these results: Where a sequence is shown, tags or fusion partners need not be part of it.

Sequences of proteins named here, by UniProt entry; tags and fusion partners are left off.
UniProt O43353: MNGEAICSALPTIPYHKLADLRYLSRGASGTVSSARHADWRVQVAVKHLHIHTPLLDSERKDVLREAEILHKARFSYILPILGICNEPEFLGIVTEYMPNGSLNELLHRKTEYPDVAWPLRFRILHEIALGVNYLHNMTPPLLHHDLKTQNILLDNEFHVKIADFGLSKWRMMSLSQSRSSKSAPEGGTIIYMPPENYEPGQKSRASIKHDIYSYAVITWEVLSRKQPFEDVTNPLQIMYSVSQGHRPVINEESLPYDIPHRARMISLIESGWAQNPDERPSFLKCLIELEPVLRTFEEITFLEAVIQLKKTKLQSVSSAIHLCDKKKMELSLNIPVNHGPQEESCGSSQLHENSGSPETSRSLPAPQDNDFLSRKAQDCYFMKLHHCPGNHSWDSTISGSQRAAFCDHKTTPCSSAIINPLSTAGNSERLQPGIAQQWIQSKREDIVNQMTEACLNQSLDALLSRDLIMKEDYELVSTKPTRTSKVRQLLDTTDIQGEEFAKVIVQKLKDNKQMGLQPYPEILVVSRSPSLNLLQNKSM
UniProt P29466: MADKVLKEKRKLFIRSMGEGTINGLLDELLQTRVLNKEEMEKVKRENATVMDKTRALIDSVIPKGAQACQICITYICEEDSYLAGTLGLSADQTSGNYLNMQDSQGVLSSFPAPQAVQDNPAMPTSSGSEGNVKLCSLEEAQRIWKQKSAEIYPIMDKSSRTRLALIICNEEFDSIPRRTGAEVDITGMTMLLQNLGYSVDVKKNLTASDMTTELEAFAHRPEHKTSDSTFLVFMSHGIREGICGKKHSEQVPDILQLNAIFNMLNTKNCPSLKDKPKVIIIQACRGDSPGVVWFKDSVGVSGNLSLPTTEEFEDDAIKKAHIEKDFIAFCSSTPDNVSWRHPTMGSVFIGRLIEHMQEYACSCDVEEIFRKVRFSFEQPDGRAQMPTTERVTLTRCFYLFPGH
UniProt Q9ULZ3: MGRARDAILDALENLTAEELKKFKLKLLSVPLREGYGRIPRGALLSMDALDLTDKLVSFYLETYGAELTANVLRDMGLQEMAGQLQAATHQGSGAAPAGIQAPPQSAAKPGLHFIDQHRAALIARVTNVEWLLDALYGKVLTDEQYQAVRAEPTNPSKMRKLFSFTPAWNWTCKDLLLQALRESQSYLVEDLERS

Assays:
Assay in all cases: co-immunoprecipitation from transfected HEK293T cells
Flag-Nod1 = molecular target: T1, Flag-Nod1 (UniProt Q9Y239)
T1 sequence (looked up): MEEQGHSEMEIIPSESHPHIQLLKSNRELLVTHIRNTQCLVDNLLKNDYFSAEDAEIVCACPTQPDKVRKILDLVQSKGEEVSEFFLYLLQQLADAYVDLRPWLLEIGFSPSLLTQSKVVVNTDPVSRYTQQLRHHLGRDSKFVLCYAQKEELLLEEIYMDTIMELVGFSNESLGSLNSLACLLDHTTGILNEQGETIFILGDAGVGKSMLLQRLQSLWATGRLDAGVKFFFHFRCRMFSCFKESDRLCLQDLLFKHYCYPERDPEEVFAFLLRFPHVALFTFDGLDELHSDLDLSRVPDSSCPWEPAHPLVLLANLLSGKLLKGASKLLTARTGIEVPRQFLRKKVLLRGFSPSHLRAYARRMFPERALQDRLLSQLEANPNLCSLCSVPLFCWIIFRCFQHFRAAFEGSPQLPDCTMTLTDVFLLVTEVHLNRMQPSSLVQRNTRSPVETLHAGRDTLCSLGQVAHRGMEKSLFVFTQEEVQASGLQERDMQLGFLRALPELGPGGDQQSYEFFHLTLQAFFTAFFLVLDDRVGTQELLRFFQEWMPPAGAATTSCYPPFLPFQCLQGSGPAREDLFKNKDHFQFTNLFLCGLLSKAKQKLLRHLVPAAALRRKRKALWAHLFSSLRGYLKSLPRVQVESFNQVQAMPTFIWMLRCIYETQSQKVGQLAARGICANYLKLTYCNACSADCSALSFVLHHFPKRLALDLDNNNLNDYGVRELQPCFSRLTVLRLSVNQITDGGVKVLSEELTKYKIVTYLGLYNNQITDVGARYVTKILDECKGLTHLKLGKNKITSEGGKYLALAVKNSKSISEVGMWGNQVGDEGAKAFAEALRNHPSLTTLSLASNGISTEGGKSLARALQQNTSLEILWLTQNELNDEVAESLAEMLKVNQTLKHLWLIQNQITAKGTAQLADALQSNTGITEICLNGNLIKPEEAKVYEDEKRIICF

Myc-Card10 = molecular target: T2, Myc-Card10 (UniProt Q9BWT7)
T2 sequence (looked up): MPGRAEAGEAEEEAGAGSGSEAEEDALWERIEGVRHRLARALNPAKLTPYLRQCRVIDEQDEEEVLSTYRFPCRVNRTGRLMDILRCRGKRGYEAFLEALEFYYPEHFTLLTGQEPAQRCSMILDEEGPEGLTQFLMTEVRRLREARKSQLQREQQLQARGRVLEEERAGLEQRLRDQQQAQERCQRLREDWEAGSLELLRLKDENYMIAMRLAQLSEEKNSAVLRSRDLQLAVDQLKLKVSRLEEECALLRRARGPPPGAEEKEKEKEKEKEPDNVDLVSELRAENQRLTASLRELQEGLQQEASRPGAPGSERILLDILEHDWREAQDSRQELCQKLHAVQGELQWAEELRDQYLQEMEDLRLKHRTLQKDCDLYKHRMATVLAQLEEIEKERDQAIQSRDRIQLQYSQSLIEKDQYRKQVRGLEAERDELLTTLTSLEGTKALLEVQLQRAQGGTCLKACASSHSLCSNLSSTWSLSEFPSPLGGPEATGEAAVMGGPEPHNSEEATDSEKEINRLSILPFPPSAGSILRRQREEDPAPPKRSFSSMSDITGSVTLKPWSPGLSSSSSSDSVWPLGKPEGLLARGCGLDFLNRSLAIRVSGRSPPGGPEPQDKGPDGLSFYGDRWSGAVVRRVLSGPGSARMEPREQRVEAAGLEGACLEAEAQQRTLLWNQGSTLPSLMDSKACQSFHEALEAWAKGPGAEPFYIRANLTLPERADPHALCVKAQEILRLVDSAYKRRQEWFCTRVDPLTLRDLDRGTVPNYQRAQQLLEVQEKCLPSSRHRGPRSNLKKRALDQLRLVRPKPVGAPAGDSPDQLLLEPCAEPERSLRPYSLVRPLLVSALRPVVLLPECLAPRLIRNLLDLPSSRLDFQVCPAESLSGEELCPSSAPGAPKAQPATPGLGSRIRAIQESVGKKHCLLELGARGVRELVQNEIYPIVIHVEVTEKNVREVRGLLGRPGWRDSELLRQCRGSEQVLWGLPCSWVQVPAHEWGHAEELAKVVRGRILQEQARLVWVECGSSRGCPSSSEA

Flag-Cardiak = Flag-Cardiak (UniProt O43353)
Myc-Caspase-1 = Myc-Caspase-1 (UniProt P29466)

Measured: binding

HA-ASC (from UniProt Q9ULZ3 1-195)
binds: all assays above
